Where no end group is shown, it is not given here.
What follows are compounds tested on bacterial strains versus sheep red blood cells (assay: Therapeutic index (cell selectivity), HC10/GM). Settings: 512 μM used for HC10 when no hemolysis at 256 μM.

Row | Compound | TI (therapeutic index, HC10/GM)
1 | KKWFKKWLKWL-NH2 [BP13] | 36.1
2 | KKLWKKILKWL-NH2 [BP8] | 52.2
3 | KKLWKKIWKYW-NH2 [BP15] | 29.1
4 | CC[C@H](C)[C@H](NC(=O)[C@H](CCCCN)NC(=O)[C@H](CCCCN)NC(=O)[C@H](Cc1c[nH]c2ccccc12)NC(=O)[C@H](CC(C)C)NC(=O)[C@H](CCCCN)NC(=O)[C@@H](N)CCCCN)C(=O)N[C@@H](CC(C)C)C(=O)N[C@@H](CCCCN)C(=O)N[C@@H](Cc1ccc(O)cc1)C(=O)N[C@@H](CC(C)C)C(N)=O [BP1] | 22.7
5 | KKLFKKWLKYW-NH2 [BP10] | 16.4
6 | KKWFKKILKWL-NH2 [BP6] | 64.0
7 | CC(C)C[C@H](NC(=O)[C@H](Cc1ccc(O)cc1)NC(=O)[C@H](CCCCN)NC(=O)[C@H](CC(C)C)NC(=O)[C@H](Cc1c[nH]c2ccccc12)NC(=O)[C@H](CCCCN)NC(=O)[C@H](CCCCN)NC(=O)[C@H](Cc1ccccc1)NC(=O)[C@H](CC(C)C)NC(=O)[C@H](CCCCN)NC(=O)[C@@H](N)CCCCN)C(N)=O [BP2] | 27.7
8 | CC[C@H](C)[C@H](NC(=O)[C@H](CCCCN)NC(=O)[C@H](CCCCN)NC(=O)[C@H](Cc1ccccc1)NC(=O)[C@H](CC(C)C)NC(=O)[C@H](CCCCN)NC(=O)[C@@H](N)CCCCN)C(=O)N[C@@H](CC(C)C)C(=O)N[C@@H](CCCCN)C(=O)N[C@@H](Cc1ccc(O)cc1)C(=O)N[C@@H](CC(C)C)C(N)=O [BP100] | 22.7
9 | KKLFKKWWKYL-NH2 [BP9] | 20.4
10 | CC[C@H](C)[C@H](NC(=O)[C@H](CCCCN)NC(=O)[C@H](CCCCN)NC(=O)[C@H](Cc1ccccc1)NC(=O)[C@H](CC(C)C)NC(=O)[C@H](CCCCN)NC(=O)[C@@H](N)CCCCN)C(=O)N[C@@H](CC(C)C)C(=O)N[C@@H](CCCCN)C(=O)N[C@@H](Cc1c[nH]c2ccccc12)C(=O)N[C@@H](CC(C)C)C(N)=O [BP4] | 27.4
11 | KKLWKKWLKYW-NH2 [BP14] | 34.4
12 | CC[C@H](C)[C@H](NC(=O)[C@H](CCCCN)NC(=O)[C@H](CCCCN)NC(=O)[C@H](Cc1ccccc1)NC(=O)[C@H](CC(C)C)NC(=O)[C@H](CCCCN)NC(=O)[C@@H](N)CCCCN)C(=O)N[C@@H](Cc1c[nH]c2ccccc12)C(=O)N[C@@H](CCCCN)C(=O)N[C@@H](Cc1ccc(O)cc1)C(=O)N[C@@H](CC(C)C)C(N)=O [BP3] | 18.8
13 | KKLFKKWWKWL-NH2 [BP16] | 15.7
14 | KKLFKKIWKWL-NH2 [BP11] | 49.2
15 | KKLWKKIWKYL-NH2 [BP7] | 53.3
16 | KKLFKKILKWW-NH2 [BP12] | 17.0
17 | KKWWKKILKYL-NH2 [BP5] | 124.9
